Experimental data as given in patent US8586613B2, “Pyridinium and quinolinium derivatives” (Universidad de Granada, priority 2004, dated 2013).
Structures were worked out from names or drawings and are uncertain.

Tested on: Balb C mice
Conditions: daily doses for 5 consecutive days, 9 days rest, dose entailing 50% mortality, tested form: dibromide

CN(c1ccc(Cl)cc1)c1cc[n+](Cc2cccc(C[n+]3ccc(N(C)c4ccc(Cl)cc4)cc3)c2)cc1
toxicity IC50: 17.5 mg/kg
